PubChem BioAssay AID686943, Drosophila RNAi Screening Center | 2013
The screen tested about 23,000 reagents; this is an unselected part of those that have a named target and a result. 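Extra replicates exist only for a retested subset of genes; insulin dose and duration not given; both raised and lowered dpERK matter.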 Names joined by + are all predicted targets of the reagent. Further read-outs or replicates are left out here. Reagent sequences are not shown. The record does not give: the amount of reagent, the time to read-out.

Assay: 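Knockdowns that increase or decrease active ERK after insulin receptor stimulation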 (primary screen)
Cells: Drosophila S2R+ haemocyte-like cells expressing YFP-tagged ERK (Rolled)
Reagent: long dsRNA against Drosophila genes
Conditions: insulin stimulation versus unstimulated cells; dose and duration not given
Measurement: 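Per-plate z-scores of phospho-ERK immunostaining normalised to YFP-tagged ERK, measured with and without insulin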
Reading the numbers: replicate 1, z-score of dpERK with insulin: higher = more active ERK per ERK-YFP after insulin

ste24a [DRSC07314] | replicate 1, z-score of dpERK with insulin: 0.42
ENGase [DRSC19952] | replicate 1, z-score of dpERK with insulin: 0.61
ENGase [DRSC19953] | replicate 1, z-score of dpERK with insulin: 0.16
CG14720 [DRSC14942] | replicate 1, z-score of dpERK with insulin: 0.36

An excerpt of the results above, as a working copy:
ENGase [DRSC19952] | replicate 1, z-score of dpERK with insulin: 0.61
ENGase [DRSC19953] | replicate 1, z-score of dpERK with insulin: 0.16

The results go on.
Cdk9 [DRSC04601] | replicate 1, z-score of dpERK with insulin: 3.19
CG15254 [DRSC01870] | replicate 1, z-score of dpERK with insulin: -0.15
CG15254 [DRSC21765] | replicate 1, z-score of dpERK with insulin: 0.63
CG3339 [DRSC13821] | replicate 1, z-score of dpERK with insulin: -0.27
CG3339 [DRSC15479] | replicate 1, z-score of dpERK with insulin: -0.06
Pgant1 [DRSC07095] | replicate 1, z-score of dpERK with insulin: 0.31
zen2 [DRSC12633] | replicate 1, z-score of dpERK with insulin: 0.63
Ugt36A1 + CG15418 [DRSC00432] | replicate 1, z-score of dpERK with insulin: 0
